Results are given in words; binding and its absence hold for the method and conditions named. In cells and extracts the contact can be indirect. Some results given as binding are weak or reduced against the parent protein; the word gives no strength.

For test [1], the target named is T1, Nup188 (human (endogenous in DLD1)), Q5SRE5.
T1 chain: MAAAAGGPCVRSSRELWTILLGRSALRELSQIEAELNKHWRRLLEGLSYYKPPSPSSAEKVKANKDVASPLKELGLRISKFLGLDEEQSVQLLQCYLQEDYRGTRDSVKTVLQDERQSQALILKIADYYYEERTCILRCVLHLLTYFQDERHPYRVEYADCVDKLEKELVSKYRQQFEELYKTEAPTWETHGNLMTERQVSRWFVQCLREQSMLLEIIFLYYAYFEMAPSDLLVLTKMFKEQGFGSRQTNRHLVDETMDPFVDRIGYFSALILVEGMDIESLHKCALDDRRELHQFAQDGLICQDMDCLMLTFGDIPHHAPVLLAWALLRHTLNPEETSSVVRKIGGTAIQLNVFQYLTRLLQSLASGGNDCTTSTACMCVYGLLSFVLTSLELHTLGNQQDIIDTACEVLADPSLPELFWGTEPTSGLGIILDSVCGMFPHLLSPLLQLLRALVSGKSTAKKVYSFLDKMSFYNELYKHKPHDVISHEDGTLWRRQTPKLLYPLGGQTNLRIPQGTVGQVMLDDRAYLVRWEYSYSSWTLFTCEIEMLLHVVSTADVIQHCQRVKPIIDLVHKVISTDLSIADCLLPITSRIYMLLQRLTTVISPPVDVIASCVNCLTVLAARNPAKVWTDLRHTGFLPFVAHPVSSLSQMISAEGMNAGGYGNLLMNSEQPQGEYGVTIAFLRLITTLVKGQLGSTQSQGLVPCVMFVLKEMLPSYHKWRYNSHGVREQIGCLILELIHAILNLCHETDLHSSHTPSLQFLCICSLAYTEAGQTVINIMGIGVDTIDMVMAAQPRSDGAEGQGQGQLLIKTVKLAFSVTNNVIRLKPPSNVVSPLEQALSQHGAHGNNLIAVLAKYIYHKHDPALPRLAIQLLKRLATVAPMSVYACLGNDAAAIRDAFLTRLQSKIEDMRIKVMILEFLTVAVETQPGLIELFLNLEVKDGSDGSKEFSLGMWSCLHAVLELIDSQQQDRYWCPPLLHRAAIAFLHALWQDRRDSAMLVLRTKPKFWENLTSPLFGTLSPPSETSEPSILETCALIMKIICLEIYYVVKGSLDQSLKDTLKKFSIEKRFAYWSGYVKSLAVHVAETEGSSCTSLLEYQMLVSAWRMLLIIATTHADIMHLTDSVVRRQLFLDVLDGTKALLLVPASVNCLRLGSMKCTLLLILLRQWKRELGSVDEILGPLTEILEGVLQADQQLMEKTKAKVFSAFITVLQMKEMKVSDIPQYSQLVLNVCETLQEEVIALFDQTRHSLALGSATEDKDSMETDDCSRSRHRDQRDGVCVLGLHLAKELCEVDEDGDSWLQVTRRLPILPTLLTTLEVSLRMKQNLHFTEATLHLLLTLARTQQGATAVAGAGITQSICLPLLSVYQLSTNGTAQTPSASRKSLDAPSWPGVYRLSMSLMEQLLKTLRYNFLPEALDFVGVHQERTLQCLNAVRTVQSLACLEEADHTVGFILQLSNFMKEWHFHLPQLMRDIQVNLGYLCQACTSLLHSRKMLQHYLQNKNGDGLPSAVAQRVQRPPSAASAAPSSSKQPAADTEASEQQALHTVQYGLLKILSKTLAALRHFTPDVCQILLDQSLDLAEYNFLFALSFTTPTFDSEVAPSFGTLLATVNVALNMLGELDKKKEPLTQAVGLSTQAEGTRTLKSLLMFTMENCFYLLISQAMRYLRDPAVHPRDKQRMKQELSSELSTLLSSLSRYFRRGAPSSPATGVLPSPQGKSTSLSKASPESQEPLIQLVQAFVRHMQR
As to the kind of experiment: co-IP; reverse co-IP: IP with anti-Nup188 antibody from DLD1 whole-cell extracts, protein A dynabeads, Western blot; Co-IP buffer 50 mM Tris-HCl pH 8.0, 150 mM NaCl, 0.5% NP-40. As to conditions: remark: other sources report otherwise. On the technique in general: Immunoblotting shows a protein as a band on a membrane.

Test [2] addresses Nup188 (human (endogenous in DLD1)) (UniProt Q5SRE5). The test is described as above.

B1: Nup98, P52948 1-880 (protein)
chain: MFNKSFGTPFGGGTGGFGTTSTFGQNTGFGTTSGGAFGTSAFGSSNNTGGLFGNSQTKPGGLFGTSSFSQPATSTSTGFGFGTSTGTANTLFGTASTGTSLFSSQNNAFAQNKPTGFGNFGTSTSSGGLFGTTNTTSNPFGSTSGSLFGPSSFTAAPTGTTIKFNPPTGTDTMVKAGVSTNISTKHQCITAMKEYESKSLEELRLEDYQANRKGPQNQVGAGTTTGLFGSSPATSSATGLFSSSTTNSGFAYGQNKTAFGTSTTGFGTNPGGLFGQQNQQTTSLFSKPFGQATTTQNTGFSFGNTSTIGQPSTNTMGLFGVTQASQPGGLFGTATNTSTGTAFGTGTGLFGQTNTGFGAVGSTLFGNNKLTTFGSSTTSAPSFGTTSGGLFGNKPTLTLGTNTNTSNFGFGTNTSGNSIFGSKPAPGTLGTGLGAGFGTALGAGQASLFGNNQPKIGGPLGTGAFGAPGFNTTTATLGFGAPQAPVALTDPNASAAQQAVLQQHINSLTYSPFGDSPLFRNPMSDPKKKEERLKPTNPAAQKALTTPTHYKLTPRPATRVRPKALQTTGTAKSHLFDGLDDDEPSLANGAFMPKKSIKKLVLKNLNNSNLFSPVNRDSENLASPSEYPENGERFSFLSKPVDENHQQDGDEDSLVSHFYTNPIAKPIPQTPESAGNKHSNSNSVDDTIVALNMRAALRNGLEGSSEETSFHDESLQDDREEIENNSYHMHPAGIILTKVGYYTIPSMDDLAKITNEKGECIVSDFTIGRKGYGSIYFEGDVNLTNLNLDDIVHIRRKEVVVYLDDNQKPPVGEGLNRKAEVTLDGVWPTDKTSRCLIKSPDRLADINYEGRLEAVSRKQGAQFKEYRPETGSWVFKVSHF
Take B1: in test [1], the binding result is given as “no binding”.

B2: Nup93 (protein, UniProt Q8N1F7 1-819)
chain: MDTEGFGELLQQAEQLAAETEGISELPHVERNLQEIQQAGERLRSRTLTRTSQETADVKASVLLGSRGLDISHISQRLESLSAATTFEPLEPVKDTDIQGFLKNEKDNALLSAIEESRKRTFGMAEEYHRESMLVEWEQVKQRILHTLLASGEDALDFTQESEPSYISDVGPPGRSSLDNIEMAYARQIYIYNEKIVNGHLQPNLVDLCASVAELDDKSISDMWTMVKQMTDVLLTPATDALKNRSSVEVRMEFVRQALAYLEQSYKNYTLVTVFGNLHQAQLGGVPGTYQLVRSFLNIKLPAPLPGLQDGEVEGHPVWALIYYCMRCGDLLAASQVVNRAQHQLGEFKTWFQEYMNSKDRRLSPATENKLRLHYRRALRNNTDPYKRAVYCIIGRCDVTDNQSEVADKTEDYLWLKLNQVCFDDDGTSSPQDRLTLSQFQKQLLEDYGESHFTVNQQPFLYFQVLFLTAQFEAAVAFLFRMERLRCHAVHVALVLFELKLLLKSSGQSAQLLSHEPGDPPCLRRLNFVRLLMLYTRKFESTDPREALQYFYFLRDEKDSQGENMFLRCVSELVIESREFDMILGKLENDGSRKPGVIDKFTSDTKPIINKVASVAENKGLFEEAAKLYDLAKNADKVLELMNKLLSPVVPQISAPQSNKERLKNMALSIAERYRAQGISANKFVDSTFYLLLDLITFFDEYHSGHIDRAFDIIERLKLVPLNQESVEERVAAFRNFSDEIRHNLSEVLLATMNILFTQFKRLKGTSPSSSSRPQRVIEDRDSQLRSQARTLITFAGMIPYRTSGDTNARLVQMEVLMN
On to B2, for which the binding entry in test [2] is listed as “binds”.
